Record: PubChem BioAssay AID1224830 (NIAID, 2016)
The deposit covers about 18,000 reagents; this is a part drawn at random. About 2,900 of them (16%) were called active. 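Calls are made per well; low scores hint the gene aids the LPS response, high scores that it dampens it.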 Repeated entries: four replicate wells of each siRNA pool. Reagent sequences are not shown.

Test: 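Regulators of TLR4 signalling towards TNF-alpha in macrophage-like cells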 (primary screen)
Cell system: human THP-1 monocytic leukaemia cells, TNF dual-luciferase reporter clone, PMA-differentiated to macrophage-like cells
Reagents: siRNA pool against human genes, 50 nM
Timing: LPS for 4 h, given about 3 days after siRNA transfection
Challenge: bacterial LPS (TLR4 ligand), 10 ng/ml
Read-out: 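Ratio of firefly to renilla light, scaled to the plate median and expressed as a robust z-score per replicate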
Scale: TNF reporter robust z-score: higher = stronger TNF reporter response to LPS
Active means: 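a well is active when its z-score exceeds 2.8 or falls below -1.5; control wells carry no call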

Gene	TNF reporter robust z-score	Outcome
CATSPER1 (cation channel sperm associated 1)	-1.07	inactive
CATSPER1 (cation channel sperm associated 1)	-0.49	inactive
CATSPER1 (cation channel sperm associated 1)	-0.35	inactive
CATSPER1 (cation channel sperm associated 1)	0.53	inactive
KRTAP12-2 (keratin associated protein 12-2)	-0.13	inactive
KRTAP12-2 (keratin associated protein 12-2)	-0.37	inactive
KRTAP12-2 (keratin associated protein 12-2)	-0.2	inactive
KRTAP12-2 (keratin associated protein 12-2)	0.56	inactive
POM121 (POM121 transmembrane nucleoporin)	-0.51	inactive
POM121 (POM121 transmembrane nucleoporin)	-0.17	inactive
POM121 (POM121 transmembrane nucleoporin)	-0.59	inactive
POM121 (POM121 transmembrane nucleoporin)	-0.68	inactive
KCNE4	-0.96	inactive
KCNE4	0.42	inactive
KCNE4	0.52	inactive
KCNE4	1.18	inactive
PLA2G2F (phospholipase A2 group IIF)	0.26	inactive
PLA2G2F (phospholipase A2 group IIF)	0.02	inactive
PLA2G2F (phospholipase A2 group IIF)	-0.22	inactive
PLA2G2F (phospholipase A2 group IIF)	-0.47	inactive
LEPROTL1 (leptin receptor overlapping transcript like 1)	-0.14	inactive
LEPROTL1 (leptin receptor overlapping transcript like 1)	0.04	inactive
LEPROTL1 (leptin receptor overlapping transcript like 1)	0.13	inactive
LEPROTL1 (leptin receptor overlapping transcript like 1)	0.65	inactive
OR52B6 (olfactory receptor family 52 subfamily B member 6)	-0.25	inactive
OR52B6 (olfactory receptor family 52 subfamily B member 6)	0.03	inactive
OR52B6 (olfactory receptor family 52 subfamily B member 6)	-0.06	inactive
OR52B6 (olfactory receptor family 52 subfamily B member 6)	4.11	active
TWSG1 (twisted gastrulation BMP signaling modulator 1)	-0.33	inactive
TWSG1 (twisted gastrulation BMP signaling modulator 1)	-0.06	inactive
TWSG1 (twisted gastrulation BMP signaling modulator 1)	0.05	inactive
TWSG1 (twisted gastrulation BMP signaling modulator 1)	-0.07	inactive
PLD5 (phospholipase D family member 5)	-2.01	active
PLD5 (phospholipase D family member 5)	-1.17	inactive
PLD5 (phospholipase D family member 5)	-1.14	inactive
PLD5 (phospholipase D family member 5)	-1.05	inactive
FAM3B (FAM3 metabolism regulating signaling molecule B)	1.98	inactive
FAM3B (FAM3 metabolism regulating signaling molecule B)	2.43	inactive
FAM3B (FAM3 metabolism regulating signaling molecule B)	0.63	inactive
FAM3B (FAM3 metabolism regulating signaling molecule B)	-0.16	inactive
PMM2 (phosphomannomutase 2)	-0.49	inactive
PMM2 (phosphomannomutase 2)	-0.36	inactive
PMM2 (phosphomannomutase 2)	-0.08	inactive
PMM2 (phosphomannomutase 2)	-0.09	inactive

Additional reagents follow:
Gene	TNF reporter robust z-score	Outcome
CARS2 (cysteinyl-tRNA synthetase 2, mitochondrial)	0.31	inactive
CARS2 (cysteinyl-tRNA synthetase 2, mitochondrial)	0.02	inactive
CARS2 (cysteinyl-tRNA synthetase 2, mitochondrial)	-0.15	inactive
CARS2 (cysteinyl-tRNA synthetase 2, mitochondrial)	0.12	inactive
NFIC (nuclear factor I C)	-1.03	inactive
NFIC (nuclear factor I C)	-0.05	inactive
NFIC (nuclear factor I C)	-0.69	inactive
NFIC (nuclear factor I C)	-0.37	inactive
SAMD10 (sterile alpha motif domain containing 10)	-1.58	active
SAMD10 (sterile alpha motif domain containing 10)	-0.39	inactive
SAMD10 (sterile alpha motif domain containing 10)	-1.2	inactive
SAMD10 (sterile alpha motif domain containing 10)	-0.55	inactive
KBTBD3 (kelch repeat and BTB domain containing 3)	0.06	inactive
KBTBD3 (kelch repeat and BTB domain containing 3)	0.61	inactive
KBTBD3 (kelch repeat and BTB domain containing 3)	0.99	inactive
KBTBD3 (kelch repeat and BTB domain containing 3)	0.33	inactive
TMEM252 (transmembrane protein 252)	-0.16	inactive
TMEM252 (transmembrane protein 252)	1.92	inactive
TMEM252 (transmembrane protein 252)	0.27	inactive
TMEM252 (transmembrane protein 252)	1.16	inactive
RFPL3 (ret finger protein like 3)	0.53	inactive
RFPL3 (ret finger protein like 3)	-1.19	inactive
RFPL3 (ret finger protein like 3)	0.16	inactive
RFPL3 (ret finger protein like 3)	0.97	inactive
RNF168 (ring finger protein 168)	-1.19	inactive
RNF168 (ring finger protein 168)	-0.17	inactive
RNF168 (ring finger protein 168)	0.91	inactive
RNF168 (ring finger protein 168)	0.43	inactive
MAP3K10 (mitogen-activated protein kinase kinase kinase 10)	-0.47	inactive
MAP3K10 (mitogen-activated protein kinase kinase kinase 10)	-0.38	inactive
MAP3K10 (mitogen-activated protein kinase kinase kinase 10)	-0.37	inactive
MAP3K10 (mitogen-activated protein kinase kinase kinase 10)	1.56	inactive
